The assay has as its target full-length HA-tagged mutant SynCAM1 (rat) (UniProt Q6AYP5). As to the kind of experiment: co-IP; tagged recombinant proteins coexpressed in COS7 cells; lysis in 50 mM Tris pH 7.4, 100 mM NaCl, 1 mM EDTA, 1% Triton-X or 0.1% NP-40; IP with anti-MYC, anti-HA or anti-PSD-95 antibody (mouse IgG as control), protein-G-agarose, 4 °C; western blot. In general terms: A western blot detects proteins with antibodies after separation by electrophoresis.

Amino acid sequences for entries named in this document (tags omitted). A change or cut given only in a name is not applied to a line headed by its entry.
UniProt Q6AYP5: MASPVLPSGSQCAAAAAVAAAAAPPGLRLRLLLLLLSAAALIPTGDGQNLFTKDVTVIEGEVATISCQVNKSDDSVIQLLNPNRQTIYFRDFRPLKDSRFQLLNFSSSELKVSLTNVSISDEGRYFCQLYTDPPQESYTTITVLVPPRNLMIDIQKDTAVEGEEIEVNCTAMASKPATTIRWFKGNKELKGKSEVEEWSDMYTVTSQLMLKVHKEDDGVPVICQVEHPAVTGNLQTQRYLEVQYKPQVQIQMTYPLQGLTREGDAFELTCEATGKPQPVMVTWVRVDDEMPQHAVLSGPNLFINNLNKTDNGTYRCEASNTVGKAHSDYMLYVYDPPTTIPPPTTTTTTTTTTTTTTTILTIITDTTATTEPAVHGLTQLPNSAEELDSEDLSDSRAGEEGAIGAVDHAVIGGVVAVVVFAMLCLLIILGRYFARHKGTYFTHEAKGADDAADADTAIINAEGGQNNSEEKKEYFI

No constants are given. Whether binding was seen depends on the method and setting. Binding seen in cells or lysates may run through a third protein. Sequences can lack the tags named with a protein.

B1: MYC-tagged full-length mouse MPP2 (MAGUK p55 subfamily member 2) (protein, UniProt Q9WV34-1 1-552)
chain: MPVAATNSESAMQQVLDNLGSLPNATGAAELDLIFLRGIMESPIVRSLAKAHERLEETKLEAVRDNNLELVQEILRDLAELAEQSSTAAELARILQEPHFQSLLETHDSVASKTYETPPPSPGLDPTFSNQPVPPDAVRMVGIRKTAGEHLGVTFRVEGGELVIARILHGGMVAQQGLLHVGDIIKEVNGQPVGSDPRALQELLRSASGSVILKILPSYQEPHLPRQVFVKCHFDYDPARDSLSPCKEAGLRFNAGDLLQIVNQDDANWWQACHVEGGSAGLIPSQLLEEKRKAFVKRDLELTPTSGTLCGSLSGKKKKRMMYLTTKNAEFDRHELLIYEEVARMPPFRRKTLVLIGAQGVGRRSLKNKLILWDPDRYGTTVPYTSRRPKDSEREGQGYSFVSRGEMEADIRAGRYLEHGEYEGNLYGTRIDSIRGVVASGKVCVLDVNPQAVKVLRTAEFVPYVVFIEAPDYETLRAMNRAALESGVSTKQLTEADLRRTVEESSRIQRGYGHYFDLSLVNSNLERTFRELQTAMEKLRTEPQWVPVSWVY
For B1, the binding entry is given as “no binding”.
